Earlier results on one compound are cited in patent US20120238566A1, “USE OF CELL AUTOPHAGY (TYPE II CELL APOPTOSIS) INHIBITORS” (priority 2009, published 2012).

pIC50: −log10 of the molar value.

What is called pIC50 is the IC50 on a negative log10 scale, so that one unit is a factor of ten.

For one data set, the system named is JNK/SAPK. As to conditions: no prominent inhibitory effect; cited from earlier work.
Data set [1] concerns p44/42 MAPK (i.e. Erk1/2). The note with it: no prominent inhibitory effect; cited from earlier work.

As for `C[S+]([O-])c1ccc(-c2nc(-c3ccncc3)c(-c3ccc(F)cc3)[nH]2)cc1` (centres unmarked) [SB203580], the pIC50 (in the data set with JNK/SAPK; in data set [1]) was 4.00 throughout.
